SMILES strings stand for the structures. The full ranking holds about 3,200 compounds; the median of “TSA(with NAD+) / Primary screening (TSA) / delta Tm (K)” is about -0.04, and the highest 2% start at about 0.37. This is one part of the list.

Sequences of proteins named here, by UniProt entry; tags and fusion partners are left off. Residues count along the entry.
UniProt Q96EB6, 2-747 limits assumed: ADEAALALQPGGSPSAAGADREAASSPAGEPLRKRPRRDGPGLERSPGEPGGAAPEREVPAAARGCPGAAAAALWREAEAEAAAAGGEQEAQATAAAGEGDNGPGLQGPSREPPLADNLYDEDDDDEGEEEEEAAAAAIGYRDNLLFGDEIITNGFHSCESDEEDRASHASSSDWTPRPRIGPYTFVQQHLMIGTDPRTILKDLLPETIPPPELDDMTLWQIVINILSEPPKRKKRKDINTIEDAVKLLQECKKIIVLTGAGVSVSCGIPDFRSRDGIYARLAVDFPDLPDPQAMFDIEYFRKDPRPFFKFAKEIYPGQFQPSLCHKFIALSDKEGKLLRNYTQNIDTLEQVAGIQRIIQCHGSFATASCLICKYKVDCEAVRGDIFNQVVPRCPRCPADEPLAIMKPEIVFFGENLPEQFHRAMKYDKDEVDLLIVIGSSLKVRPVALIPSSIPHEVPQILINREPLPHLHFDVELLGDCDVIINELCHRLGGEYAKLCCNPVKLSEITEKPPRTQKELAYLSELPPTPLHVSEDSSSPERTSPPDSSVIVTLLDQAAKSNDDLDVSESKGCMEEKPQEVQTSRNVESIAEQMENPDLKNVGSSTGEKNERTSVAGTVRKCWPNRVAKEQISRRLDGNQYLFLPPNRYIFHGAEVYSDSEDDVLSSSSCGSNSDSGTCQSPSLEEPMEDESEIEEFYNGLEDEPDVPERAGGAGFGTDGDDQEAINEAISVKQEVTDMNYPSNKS

This test deals with NAD-dependent deacetylase Sirtuin 1 (human, UniProt Q96EB6). Put plainly: primary screen, delta tm. The arrangement: single well (n = 1, as 'the same TSA'). As to conditions: 10 µM.
Take `COc1ccc(CN2CCN(c3ncnc4sc5c(c34)CCCCC5)CC2)cc1`: the “TSA(with NAD+) / Primary screening (TSA) / delta Tm (K)” value is recorded as -0.21 K.
For the compound `Cn1cc(C2CCNC2)c2ccccc21` (stereo not shown), the “TSA(with NAD+) / Primary screening (TSA) / delta Tm (K)” value worked out at 0.01 K.
Turning to `N#C/C(=C/c1ccc(-c2cccc(Cl)c2Cl)o1)C(=O)Nc1cccc2ncccc12`, the “TSA(with NAD+) / Primary screening (TSA) / delta Tm (K)” value is reported as -0.19 K.
The same measure for `CN1/C(=C/C=C2C(=O)NC(=S)NC2=O)C(C)(C)c2ccccc21`: -0.01 K; for `Cc1nc(C)c(-c2nnc(SCC(=O)N3CCN(Cc4cccs4)CC3)o2)s1`: -0.05 K; for `O=C1c2ccccc2NC2(CCCCC2)N1c1ccc2c(c1)OCCO2`: 0.06 K.
The same measure for `O=C1NC(=O)c2ccccc2/C1=C\NNC(=O)C12CC3CC(CC(C3)C1)C2`: 0.48 K.
The same measure for `COc1cccc(N2C(=O)NC(=O)C2=O)c1`: -0.18 K; for `Cc1ccc(C2CCCN2)cc1` (stereo not shown): -0.04 K; for `Cc1cccn2cc(CSc3nc4ccsc4c(=O)n3C)nc12`: -0.29 K.
In the case of `Nc1nc(COC(=O)c2cccc(NC(=O)c3cccs3)c2)nc(Nc2ccccc2)n1`, the “TSA(with NAD+) / Primary screening (TSA) / delta Tm (K)” value was 0.42 K.
The value for `O=C(Nc1ccccc1Cc1ccccc1)c1ccc2ccccc2c1` was -0.01 K; that for `CC(C)(C)c1noc(CCCC(=O)Nc2ccc(F)c(C(N)=O)c2)n1` was -0.01 K; that for `CCC(=O)N1N=C(c2cccs2)CC1c1ccc(OC)cc1` (stereo not shown) was -0.22 K.
The value for `NC(=O)c1ccc(C(=O)OCC(=O)Nc2ccccc2-c2ccccc2)cc1` was 0.25 K; that for `CN(c1ccccc1)S(=O)(=O)c1cccc(C(=O)Nc2ccccc2C(F)(F)F)c1` was 0.07 K; that for `O=C(NC1CCCc2ccccc21)C(c1ccccc1)c1ccccc1` (stereo not shown) was -0.11 K.
The value for `COc1ccc(S(=O)(=O)Nc2ccccc2OC)cc1NN=C1C(=O)NC(=S)NC1=O` was 0.05 K.
For `Cc1ccc(-n2ccnc2SCC(=O)N(CCC(N)=O)Cc2ccccc2)c(C)c1`, the “TSA(with NAD+) / Primary screening (TSA) / delta Tm (K)” value was 0.01 K.
The value for `Cc1ccc(C(=O)C2=C(O)C(=O)N(CCCN3CCOCC3)C2c2ccc(OC(C)C)cc2)cc1` (stereo not shown) was -0.01 K; that for `COCC(C)N` (stereo not shown) was -0.04 K; that for `O=C(CCn1[nH]c(=O)ccc1=O)Nc1nc2ccccc2s1` was 0.01 K.
The value for `O=C(CSc1nccn1Cc1ccccn1)c1cccc(OC(F)F)c1` was -0.13 K.
The same measure for `CC(C)(C)OC(=O)N1CCCC1C(=O)N1CCN(c2cnccn2)CC1` (stereo not shown): -0.09 K.
For the compound `N#Cc1c(=O)c2cccnc2n2c1[nH]c1ccccc12`, the “TSA(with NAD+) / Primary screening (TSA) / delta Tm (K)” value is listed as -0.03 K.
The same measure for `NCCOCC(=O)O`: -0.13 K.
The same measure for `C=C(C)CCN`: -0.21 K.
The same measure for `O=C(CSc1nnc(NCC2CCCO2)s1)Nc1nc(-c2cc(F)ccc2F)cs1` (stereo not shown): 0.01 K; for `CCOc1ccc(-n2c(C)cc(C(=O)COc3ccccc3C(N)=O)c2C)cc1`: -0.18 K.
As for `CCCOc1ccc(C2C(C(=O)/C=C/c3ccco3)=C(O)C(=O)N2CCCN2CCOCC2)cc1` (stereo not shown), the “TSA(with NAD+) / Primary screening (TSA) / delta Tm (K)” value was -0.06 K.
The value for `c1ccc(CN2CCCCCC2)c(CNc2ccc3nnnn3n2)c1` was -0.04 K.
For `COc1ccc2cc(CN(C)CC(=O)Nc3ccc(C)cc3)ccc2c1`, the “TSA(with NAD+) / Primary screening (TSA) / delta Tm (K)” value was found to be 0.03 K.
Consider `CCC(C)c1ccccc1NC(=O)Cc1coc2cc3c(cc12)CCC3` (stereo not shown), for which the “TSA(with NAD+) / Primary screening (TSA) / delta Tm (K)” value was -0.03 K.
The same measure for `CCc1ccc(N(C(C)=O)c2nc(COC(=O)CNC(=O)C34CC5CC(CC(C5)C3)C4)cs2)cc1`: -0.13 K.
The same measure for `CCOc1ccc2[nH]c(SCC(=O)N3CCCCC3C(N)=O)nc2c1` (stereo not shown): -0.05 K; for `CC(OC(=O)CCC(=O)c1ccc(F)cc1)C(=O)Nc1ccc(C(N)=O)cc1` (stereo not shown): -0.06 K.
The value for `Cc1cc(CNc2ccc(Cl)cc2C(N)=O)no1` was 0.01 K; that for `COc1cc(/C=N/NC(=O)c2cc3c(s2)CCCC3)ccc1OCC(=O)Nc1ccc(C)cc1` was 0.52 K; that for `CC1CCc2[nH]c3ccc(C(=O)NC4CC4)cc3c2C1` (stereo not shown) was 0.07 K.
Regarding `O=C(Cn1ccc(=O)c2ccccc21)Nc1ccc(N2CCCCC2)nc1`, the “TSA(with NAD+) / Primary screening (TSA) / delta Tm (K)” value is -0.08 K.
The same measure for `O=C1CCCN1c1ccc(O)cc1`: -0.11 K; for `O=C(CSc1nc(-c2ccccc2)c(-c2ccccc2)o1)c1c[nH]c(C(=O)N2CCCC2)c1`: 0.07 K; for `O=C(O)c1ccc2[nH]c3c(c2c1)CCCC3`: -0.11 K.
The value for `Cc1ccccc1N1C(=O)c2ccc(C(=O)OCC(N)=O)cc2C1=O` was -0.15 K; that for `O=C(CCCn1c(=O)oc2cc([N+](=O)[O-])ccc21)N1CCN(Cc2ccc(Cl)s2)CC1` was -0.22 K; that for `Cc1c(F)cc(C(N)=O)cc1NCC(=O)Nc1ccc([N+](=O)[O-])cc1` was -0.04 K.
The value for `CN(c1ccccc1)S(=O)(=O)c1cccc(NC(=O)CNc2cccc3ccccc23)c1` was 0.41 K; that for `O=C1CCN(c2ncnc3cc(Cl)ccc23)CCN1` was 0.09 K.
As for `O=C(NCCN1CCN(c2ccc(F)cc2)CC1)c1cc[nH]n1`, the “TSA(with NAD+) / Primary screening (TSA) / delta Tm (K)” value is given as -0.08 K.
The same measure for `CC(C)C(CNc1ccc2nnnn2n1)N1CCc2ccccc2C1` (stereo not shown): -0.11 K.
The value for `Cc1cccc(N(Cc2ccccc2)C(=O)COC(=O)C23CC4CC(CC(O)(C4)C2)C3)c1` was -0.01 K; that for `COc1cccc(C2C(C(=O)c3ccc(Cl)cc3)=C(O)C(=O)N2CCCN2CCOCC2)c1` (stereo not shown) was -0.08 K.
For the compound `Cn1c(-c2ccccc2)cc2ccccc21`, the “TSA(with NAD+) / Primary screening (TSA) / delta Tm (K)” value is -0.01 K.
Turning to `Cn1cc(C(=O)O)c(-c2cccnc2)n1`, the “TSA(with NAD+) / Primary screening (TSA) / delta Tm (K)” value turned out to be 0.06 K.
Turning to `NC(=O)C1NCCc2c(N)cccc21` (stereo not shown), the “TSA(with NAD+) / Primary screening (TSA) / delta Tm (K)” value is reported as -0.09 K.
The same measure for `CCOc1cccc(C2C(C(=O)c3sc(C)nc3C)=C(O)C(=O)N2CCCN2CCOCC2)c1` (stereo not shown): -0.13 K; for `COc1ccc(N(C)S(=O)(=O)c2cccc(C(=O)N(C)CCOc3ccc(F)cc3)c2)cc1`: 0.05 K.
The value for `CN(c1ccccc1)S(=O)(=O)c1cccc(NC(=O)COc2ccc3oc4ccccc4c3c2)c1` was -0.43 K; that for `CCOc1ccc(C2C(C(=O)c3ccc(Cl)cc3)=C(O)C(=O)N2CCCN2CCOCC2)cc1` (stereo not shown) was -0.02 K.
The same measure for `O=C(COC(=O)c1cccc(S(=O)(=O)NCc2ccccc2)c1)NC12CC3CC(CC(C3)C1)C2`: -0.25 K.
Consider `O=c1oc2cc(O)ccc2cc1-c1csc(-c2cc3c(ccc4ccccc43)oc2=O)n1`, for which the “TSA(with NAD+) / Primary screening (TSA) / delta Tm (K)” value was 0.09 K.
The same measure for `O=C(CSc1ccccc1C(=O)Nc1ccccc1N1CCOCC1)NC12CC3CC(CC(C3)C1)C2`: -0.05 K.
The value for `NNC(=O)CCN1CCCCCC1` was -0.13 K; that for `COc1cc(C#N)cc(OC)c1OC` was 0.06 K; that for `CCC(CNc1nc(-c2ccncc2)nc2ccccc12)N1CCCC1` (stereo not shown) was -0.01 K.
The value for `Cc1ccc(-c2cc(C(=O)OC(C)C(=O)Nc3cccc([N+](=O)[O-])c3)[nH]n2)cc1` (stereo not shown) was 0.25 K; that for `O=C(CC12CC3CC(CC(O)(C3)C1)C2)N1CC=C(c2ccc(O)cc2)CC1` was -0.11 K; that for `O=C(c1cnc2ccc3[nH]ncc3c2c1)c1ccccc1O` was 0.06 K.
On to `COc1cc(CN(C)C(=O)COc2ccc3ccc(=O)oc3c2)ccc1OCc1ccccc1`, for which the “TSA(with NAD+) / Primary screening (TSA) / delta Tm (K)” value is reported as 0.17 K.
The value for `CCc1ccc(CN(C)C(=O)c2cc(C)nc3ccccc23)cc1` was 0.16 K; that for `Nc1nc(-c2ccc[nH]2)cs1` was -0.14 K; that for `COC(=O)c1c(N2C(=O)C=CC2=O)sc2c1CCCC2` was -0.06 K.
The value for `COc1ccc(S(=O)(=O)N2CCc3ccccc32)cc1C(=O)Nc1cccc(S(=O)(=O)NCc2ccco2)c1` was 0.25 K; that for `Cc1sc2nc(CN3CCCC3)nc(N3CCC(C(N)=O)CC3)c2c1C` was 0.12 K.
The same measure for `O=C1NC(=S)NC(=O)C1=Cc1c2oc(-c3ccccc3)cc(-c3ccccc3)c-2c2ccccc12`: -0.03 K; for `CCN1CCN(C(=O)CCNC(=O)/C=C/c2ccc(OC)cc2)CC1`: -0.05 K; for `O=C(O)c1ccc(NC(=O)C2CC2c2ccco2)cc1` (stereo not shown): -0.13 K.
On to `CCc1nnc(N2CCC(n3cnc(C(N)=O)c3N)CC2)c(C#N)c1CC`, for which the “TSA(with NAD+) / Primary screening (TSA) / delta Tm (K)” value was -0.06 K.
The same measure for `Cn1cc(S(=O)(=O)N2CCN(C(=O)CSCc3nc4ccccc4[nH]3)CC2)cc1C(N)=O`: -0.03 K; for `Nc1ccn([C@@H]2O[C@H](CO)[C@@H](O)[C@@H]2O)c(=O)n1`: 0.09 K.
The same measure for `O=C(O)c1ccc2[nH]c(=O)[nH]c2c1`: -0.26 K.
On to `Cn1cc(CCC(=O)NCC(=O)O)c2ccccc21`, for which the “TSA(with NAD+) / Primary screening (TSA) / delta Tm (K)” value is recorded as -0.16 K.
As to `CCOC(=O)c1c(NC(=O)COC(=O)C23CC4CC(CC(Cl)(C4)C2)C3)sc(C(=O)N(CC)CC)c1C`, the “TSA(with NAD+) / Primary screening (TSA) / delta Tm (K)” value is recorded as -0.18 K.
The same measure for `CCn1cc(C2CS(=O)CCN2c2ncnc3c2oc2ccccc23)cn1` (stereo not shown): -0.19 K.
The same measure for `CCC(NCc1cccc2cn[nH]c12)c1ccc2c(c1)OCCO2` (stereo not shown): -0.23 K; for `COc1ccc(C(NC(=O)C(C)NC(=O)C23CC4CC(CC(C4)C2)C3)c2ccccc2)cc1` (stereo not shown): -0.12 K.
The same measure for `C/C=C/CCN`: -0.12 K.
Turning to `CC(C)C(NC(N)=O)C(=O)Nc1ccc(CCO)cc1` (stereo not shown), the “TSA(with NAD+) / Primary screening (TSA) / delta Tm (K)” value is 0.03 K.
Consider `C#CCn1cnc2c(N)ncnc21`, for which the “TSA(with NAD+) / Primary screening (TSA) / delta Tm (K)” value was 0.06 K.
Take `CC(OC(=O)c1ccc2c(c1)S(=O)(=O)c1ccccc1C2=O)C(=O)Nc1ncnc2[nH]cnc12` (stereo not shown): the “TSA(with NAD+) / Primary screening (TSA) / delta Tm (K)” value is 0.06 K.
The value for `C#CCNC(=O)Cc1c(C)nc2c(c1C)c(=O)[nH]n2C` was -0.09 K; that for `O=C(CCCc1cccs1)NCc1nc2ccccc2[nH]1` was -0.24 K; that for `Cc1ccc(-c2nnc(S)n2C)cc1` was -0.05 K.
As for `COc1ccc2[nH]cc(C3=CCN(C(=O)c4cc(C)no4)CC3)c2c1`, the “TSA(with NAD+) / Primary screening (TSA) / delta Tm (K)” value is on record as -0.05 K.

(Values after publication PMC6925144, “A prospective compound screening contest identified broader inhibitors for Sirtuin 1” (Scientific Reports, 2019).)
